We go through one molecule from paper PMC11826918.

Chains of the proteins cited; added tags and fusions are not shown. Residues count along the entry.
UniProt P28908, residues 19-595: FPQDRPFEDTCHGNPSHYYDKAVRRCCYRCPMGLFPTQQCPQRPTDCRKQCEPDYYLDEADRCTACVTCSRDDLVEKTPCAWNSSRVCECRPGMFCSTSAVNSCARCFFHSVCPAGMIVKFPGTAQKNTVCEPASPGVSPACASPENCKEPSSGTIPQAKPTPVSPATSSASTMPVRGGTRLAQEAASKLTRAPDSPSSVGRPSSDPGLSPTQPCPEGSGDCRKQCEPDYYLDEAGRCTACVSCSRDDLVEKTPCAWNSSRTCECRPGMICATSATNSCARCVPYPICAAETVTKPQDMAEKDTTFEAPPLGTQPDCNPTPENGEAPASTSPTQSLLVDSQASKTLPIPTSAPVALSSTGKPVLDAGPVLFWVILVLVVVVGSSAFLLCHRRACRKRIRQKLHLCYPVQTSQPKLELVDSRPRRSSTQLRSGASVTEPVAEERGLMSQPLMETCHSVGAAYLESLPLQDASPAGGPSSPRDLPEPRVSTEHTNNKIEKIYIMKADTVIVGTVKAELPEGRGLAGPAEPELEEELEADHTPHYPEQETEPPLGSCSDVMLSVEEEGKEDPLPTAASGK

No constants are given. Whether binding was seen depends on the method and setting. Some binding calls cover weakened binding; strength is not graded here. Tags and fused reporters may be left off the sequences shown.

This test addresses CD30 on CD30-stably expressed NF-κB reporter Ramos-Blue cells (human) (UniProt P28908). Briefly: flow cytometry on cells; CD30-RB cells with a mixture of antibody ([…]) and CD153-rFc (200 ng/ml), 30 min on ice; bound CD153-rFc detected with anti-rabbit IgG-PE; only the binder purified. (In general: A flow cytometer gives signals particle by particle.)

B1: CD153 fused to rabbit Fc (Fc fusion, UniProt P32971 63-234)
chain: QRTDSIPNSPDNVPLKGGNCSEDLLCILKRAPFKKSWAYLQVAKHLNKTKLSWNKDGILHGVRYQDGNLVIQFPGLYFIICQLQFLVQCPNNSVDLKLELLINKHIKKQALVTVCESGMQTKHVYQNLSQFLLDYLQVNTTISVNVDTFQYIDTSTFPLENVLSIFLYSNSD
Regarding B1, the binding entry is recorded as “binds”.
